Test results as given in publication PMC6562482.
These are yes or no findings as the source states them, for the method shown. Binding seen in cells or lysates may run through a third protein. Some results given as binding are weak or reduced against the parent protein; the word gives no strength. Sequences can lack the tags named with a protein.

The chains behind the UniProt entries cited, without tags or fusion partners.
UniProt Q13619: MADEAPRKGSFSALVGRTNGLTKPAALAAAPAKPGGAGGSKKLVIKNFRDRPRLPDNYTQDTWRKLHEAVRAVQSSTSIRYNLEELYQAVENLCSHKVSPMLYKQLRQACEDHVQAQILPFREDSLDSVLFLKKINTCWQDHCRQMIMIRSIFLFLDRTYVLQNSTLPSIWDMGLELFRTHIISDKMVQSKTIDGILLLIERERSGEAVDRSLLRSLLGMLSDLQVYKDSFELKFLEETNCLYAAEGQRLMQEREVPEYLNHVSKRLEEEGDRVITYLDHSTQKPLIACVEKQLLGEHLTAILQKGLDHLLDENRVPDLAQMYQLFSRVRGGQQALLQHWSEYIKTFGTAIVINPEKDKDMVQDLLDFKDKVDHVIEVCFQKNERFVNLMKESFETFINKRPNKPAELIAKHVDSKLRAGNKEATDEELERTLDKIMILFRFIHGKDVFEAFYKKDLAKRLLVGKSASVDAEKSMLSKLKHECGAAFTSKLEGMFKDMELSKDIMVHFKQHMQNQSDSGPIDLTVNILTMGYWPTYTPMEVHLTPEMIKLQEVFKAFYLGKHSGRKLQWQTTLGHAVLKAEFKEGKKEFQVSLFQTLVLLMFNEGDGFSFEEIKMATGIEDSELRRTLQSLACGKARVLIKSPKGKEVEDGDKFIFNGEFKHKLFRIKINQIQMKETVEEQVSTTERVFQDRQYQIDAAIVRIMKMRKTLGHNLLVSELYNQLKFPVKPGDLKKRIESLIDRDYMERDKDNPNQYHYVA

Target: Cullin 4A (Cul4A), myc-his tagged (pBabe-Cul4A-myc-his) (UniProt Q13619)
Experiment: co-IP; reciprocal immunoprecipitation from 293T cells co-transfected with pBabe-Cul4A-myc-his and pCMV6-ANXA10-GFP; 10 ug/mL MG132 for 24 h before lysis; NP-40 lysis buffer (150 mM NaCl, 50 mM Tris pH 8.0, 1% NP40); Catch and Release v2.0 system; anti-GFP and anti-Cul4A (legend: anti-His tag) antibodies for the immunoprecipitation

binding: binds
B1: Annexin A10 (ANXA10), GFP tagged (pCMV6-ANXA10-GFP, OriGene) (protein, UniProt Q9UJ72 1-324)
chain: MFCGDYVQGTIFPAPNFNPIMDAQMLGGALQGFDCDKDMLINILTQRCNAQRMMIAEAYQSMYGRDLIGDMREQLSDHFKDVMAGLMYPPPLYDAHELWHAMKGVGTDENCLIEILASRTNGEIFQMREAYCLQYSNNLQEDIYSETSGHFRDTLMNLVQGTREEGYTDPAMAAQDAMVLWEACQQKTGEHKTMLQMILCNKSYQQLRLVFQEFQNISGQDMVDAINECYDGYFQELLVAIVLCVRDKPAYFAYRLYSAIHDFGFHNKTVIRILIARSEIDLLTIRKRYKERYGKSLFHDIRNFASGHYKKALLAICAGDAEDY
